Source: patent publication US20220372485
For at least one entry, the source does not settle the construct or the ends of the probe. The direction of at least one scale is not stated here.

System: Human alpha-thrombin (Homo sapiens)
Test: binding assay
Conditions: purified native protein, protein details: Haematologic Technologies, Inc., single-stranded DNA; for binding signal (% fluorescence vs TBA15-F8 alone): 92.03% without thrombin; for binding signal (% fluorescence vs TBA15-F8 alone) / binding signal (% fluorescence vs TBA15-F10 alone) / binding signal (% fluorescence vs TBA15-F7 alone): RT; for binding signal (% fluorescence vs TBA15-F9 alone): 83.63% without thrombin, Tris, K, Na, Mg, Ca pH 7.5, RT; for binding signal (% fluorescence vs TBA15-F10 alone): 33.69% without thrombin; for binding signal (% fluorescence vs TBA15-F7 alone): 98.64% without thrombin

Question: For “ACTACGACAGTCCGTGGTAGGGCAGGTTGGGGTGACT [TBA29-D8]”, which binding signal (% fluorescence vs TBA15-F8 alone) ((PEG)6 linker between hybridization sequence ACTACGAC and TBA29, FITC/Dabcyl quenching with TBA15-F8, 1:1:1 at 200 nM, label: 5'-Dabcyl) is on record?
Answer: The binding signal (% fluorescence vs TBA15-F8 alone) was 64.9.

Question: How did the binding signal (% fluorescence vs TBA15-F9 alone) ((PEG)6 linker between hybridization sequence ACTTACGAC and TBA29, FITC/Dabcyl quenching with TBA15-F9, 1:1:1 at 200 nM, label: 5'-Dabcyl) turn out when “ACTTACGACAGTCCGTGGTAGGGCAGGTTGGGGTGACT [TBA29-D9]” was run?
Answer: Its binding signal (% fluorescence vs TBA15-F9 alone) is 30.2.

Question: With “AGCTTACGACAGTCCGTGGTAGGGCAGGTTGGGGTGACT [TBA29-D10]” as the sequence, how does the binding signal (% fluorescence vs TBA15-F10 alone) ((PEG)6 linker between hybridization sequence AGCTTACGAC and TBA29, FITC/Dabcyl quenching with TBA15-F10, 1:1:1 at 200 nM, label: 5'-Dabcyl) read?
Answer: Its binding signal (% fluorescence vs TBA15-F10 alone) is 6.95.

Question: With “ATACGACAGTCCGTGGTAGGGCAGGTTGGGGTGACT [TBA29-D7]” as the sequence, how does the binding signal (% fluorescence vs TBA15-F7 alone) ((PEG)6 linker between hybridization sequence ATACGAC and TBA29, FITC/Dabcyl quenching with TBA15-F7, 1:1:1 at 200 nM, label: 5'-Dabcyl) read?
Answer: Its binding signal (% fluorescence vs TBA15-F7 alone) is 69.5.

Question: For GGTTGGTGTGGTTGGGTCGTAAGCT [TBA15-F10], which binding signal (% fluorescence vs TBA15-F10 alone) ((PEG)6 linker between TBA15 and hybridization sequence GTCGTAAGCT, FITC/Dabcyl quenching with TBA29-D10, 1:1:1 at 200 nM, label: 3'-FITC) is on record?
Answer: Its binding signal (% fluorescence vs TBA15-F10 alone) is 6.95.

Question: GGTTGGTGTGGTTGGGTCGTAAGT [TBA15-F9] was tested. Which binding signal (% fluorescence vs TBA15-F9 alone) ((PEG)6 linker between TBA15 and hybridization sequence GTCGTAAGT, FITC/Dabcyl quenching with TBA29-D9, 1:1:1 at 200 nM, displaced by ATIII, label: 3'-FITC) did it give?
Answer: Its binding signal (% fluorescence vs TBA15-F9 alone) is 30.2.

Question: How did the binding signal (% fluorescence vs TBA15-F8 alone) ((PEG)6 linker between TBA15 and hybridization sequence GTCGTAGT, FITC/Dabcyl quenching with TBA29-D8, 1:1:1 at 200 nM, label: 3'-FITC) turn out when GGTTGGTGTGGTTGGGTCGTAGT [TBA15-F8] was run?
Answer: Its binding signal (% fluorescence vs TBA15-F8 alone) is 64.9.

Question: With GGTTGGTGTGGTTGGGTCGTAT [TBA15-F7] as the sequence, how does the binding signal (% fluorescence vs TBA15-F7 alone) ((PEG)6 linker between TBA15 and hybridization sequence GTCGTAT, FITC/Dabcyl quenching with TBA29-D7, 1:1:1 at 200 nM, label: 3'-FITC) read?
Answer: Its binding signal (% fluorescence vs TBA15-F7 alone) is 69.5.
